Results are given in words; binding and its absence hold for the method and conditions named. In cells and extracts the contact can be indirect. Some binding calls cover weakened binding; strength is not graded here. Where a sequence is shown, tags or fusion partners need not be part of it.
Target: T1, Rfc1-TAP (S. cerevisiae) (UniProt P38630)
T1 sequence: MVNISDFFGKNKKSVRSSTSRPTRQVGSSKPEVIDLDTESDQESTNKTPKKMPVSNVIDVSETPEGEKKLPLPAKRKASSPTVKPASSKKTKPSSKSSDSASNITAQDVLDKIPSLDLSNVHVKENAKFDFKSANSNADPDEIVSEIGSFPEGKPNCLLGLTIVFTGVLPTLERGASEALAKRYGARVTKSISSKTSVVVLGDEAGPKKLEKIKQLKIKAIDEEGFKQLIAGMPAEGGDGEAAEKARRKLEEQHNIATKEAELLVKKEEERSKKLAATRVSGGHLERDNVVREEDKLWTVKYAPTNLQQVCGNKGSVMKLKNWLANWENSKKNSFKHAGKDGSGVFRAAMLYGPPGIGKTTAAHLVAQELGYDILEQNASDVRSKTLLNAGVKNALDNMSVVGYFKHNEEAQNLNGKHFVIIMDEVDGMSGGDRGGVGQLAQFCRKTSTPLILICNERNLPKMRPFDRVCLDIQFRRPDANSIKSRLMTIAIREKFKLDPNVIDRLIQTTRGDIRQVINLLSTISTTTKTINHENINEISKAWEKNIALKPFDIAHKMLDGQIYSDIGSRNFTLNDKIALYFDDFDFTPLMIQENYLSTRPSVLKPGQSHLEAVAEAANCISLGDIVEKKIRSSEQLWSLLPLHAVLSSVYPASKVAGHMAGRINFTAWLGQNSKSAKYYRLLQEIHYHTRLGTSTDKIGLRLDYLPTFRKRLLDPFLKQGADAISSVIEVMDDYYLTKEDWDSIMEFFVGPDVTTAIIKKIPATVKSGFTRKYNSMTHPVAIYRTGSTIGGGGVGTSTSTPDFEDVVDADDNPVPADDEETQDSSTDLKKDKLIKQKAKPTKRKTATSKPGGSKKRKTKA
Assay: co-IP; TAP-tagged bait captured on PanMouse IgG magnetic beads from lysate of cells at 5 h in meiosis (150 mM NaCl, 0.5% Triton X-100, benzonase, overnight at 4°C), TEV elution, western blot

- binding: binds
B1: Mer3-Flag (protein, UniProt P51979 1-1187)
chain: MKTKFDRLGTGKRSRPSPNNIDFNDQSATFKRNKKNSRQPSFKVGLSYNSLLDDCDDENETEEIFEGRGLQFFDKDDNFSITADDTQVTSKLFDHDLEQTPDEEAKKPKKVTIRKSAKKCLSTTILPDSFRGVFKFTEFNKMQSEAFPSIYESNENCIISSPTGSGKTVLFELAILRLIKETNSDTNNTKIIYIAPTKSLCYEMYKNWFPSFVNLSVGMLTSDTSFLETEKAKKCNIIITTPEKWDLLTRRWSDYSRLFELVKLVLVDEIHTIKEKRGASLEVILTRMNTMCQNIRFVALSATVPNIEDLALWLKTNNELPANILSFDESYRQVQLTKFVYGYSFNCKNDFQKDAIYNSKLIEIIEKHADNRPVLIFCPTRASTISTAKFLLNNHIFSKSKKRCNHNPSDKILNECMQQGIAFHHAGISLEDRTAVEKEFLAGSINILCSTSTLAVGVNLPAYLVIIKGTKSWNSSEIQEYSDLDVLQMIGRAGRPQFETHGCAVIMTDSKMKQTYENLIHGTDVLESSLHLNLIEHLAAETSLETVYSIETAVNWLRNTFFYVRFGKNPAAYQEVNRYVSFHSVEDSQINQFCQYLLDTLVKVKIIDISNGEYKSTAYGNAMTRHYISFESMKQFINAKKFLSLQGILNLLATSEEFSVMRVRHNEKKLFKEINLSPLLKYPFLTEKKQSQIIDRVSQKVSLLIQYELGGLEFPSYEGASKLHQTLVQDKFLVFRHCFRLLKCMVDTFIEKSDGTSLKNTLFLLRSLNGHCWENTPMVLRQLKTIGLVSVRRLIRHGITNLEEMGHLSDTQIEYYLNLKIGNGIKIKNDISLLPCLNIRTKLENCKIENEELWLTFKVEISATFKSSIWHGQHLSLDIETEKSSGELIDFRRLQVNKLQSPRGFRISAKISPKLEKIEFSIHCQEIAGLGKTIVYSTDHLASQFSAKTPNIRKDLNSLEKCLFYESSSDGEVGKTSRVSHKDGLEESLSSDDSILDYLNERKKSSKAVESAAVIHPEAHSSSHFSNGRQVRSNGNYECFHSCKDKTQCRHLCCKEGIPVKYIKEKGPSSIKPVSKPDQIRQPLLAKNINTTPHLEKRLNSKPKQWQEENTDIATVHTLPSKIYNLSQQMSSMEAGEQVLKSGPENCPEIIPIDLESSDSYSSNTAASSISDPNGDLDFLGSDIEFE
